Measured values: the supplement of paper PMC10849652
Some of the results follow.

Sequences of proteins named here, by UniProt entry; tags and fusion partners are left off. A change or cut given only in a name is not applied to a line headed by its entry.
UniProt O94842: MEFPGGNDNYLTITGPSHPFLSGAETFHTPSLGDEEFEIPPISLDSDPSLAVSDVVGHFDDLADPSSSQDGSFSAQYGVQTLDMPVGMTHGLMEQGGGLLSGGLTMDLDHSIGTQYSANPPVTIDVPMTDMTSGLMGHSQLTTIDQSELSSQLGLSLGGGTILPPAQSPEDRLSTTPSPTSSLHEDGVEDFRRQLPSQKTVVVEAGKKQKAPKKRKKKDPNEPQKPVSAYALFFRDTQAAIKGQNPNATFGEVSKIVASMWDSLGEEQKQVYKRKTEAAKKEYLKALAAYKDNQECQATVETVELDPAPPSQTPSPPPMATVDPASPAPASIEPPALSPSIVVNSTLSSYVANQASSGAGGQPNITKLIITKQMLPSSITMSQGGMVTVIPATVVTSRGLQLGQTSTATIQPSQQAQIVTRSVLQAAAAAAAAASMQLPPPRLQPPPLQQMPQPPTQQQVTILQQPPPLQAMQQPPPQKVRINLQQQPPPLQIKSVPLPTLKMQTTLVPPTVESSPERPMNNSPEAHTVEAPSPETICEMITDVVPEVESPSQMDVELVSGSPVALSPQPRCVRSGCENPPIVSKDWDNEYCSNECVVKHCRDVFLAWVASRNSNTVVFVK
UniProt Q12888: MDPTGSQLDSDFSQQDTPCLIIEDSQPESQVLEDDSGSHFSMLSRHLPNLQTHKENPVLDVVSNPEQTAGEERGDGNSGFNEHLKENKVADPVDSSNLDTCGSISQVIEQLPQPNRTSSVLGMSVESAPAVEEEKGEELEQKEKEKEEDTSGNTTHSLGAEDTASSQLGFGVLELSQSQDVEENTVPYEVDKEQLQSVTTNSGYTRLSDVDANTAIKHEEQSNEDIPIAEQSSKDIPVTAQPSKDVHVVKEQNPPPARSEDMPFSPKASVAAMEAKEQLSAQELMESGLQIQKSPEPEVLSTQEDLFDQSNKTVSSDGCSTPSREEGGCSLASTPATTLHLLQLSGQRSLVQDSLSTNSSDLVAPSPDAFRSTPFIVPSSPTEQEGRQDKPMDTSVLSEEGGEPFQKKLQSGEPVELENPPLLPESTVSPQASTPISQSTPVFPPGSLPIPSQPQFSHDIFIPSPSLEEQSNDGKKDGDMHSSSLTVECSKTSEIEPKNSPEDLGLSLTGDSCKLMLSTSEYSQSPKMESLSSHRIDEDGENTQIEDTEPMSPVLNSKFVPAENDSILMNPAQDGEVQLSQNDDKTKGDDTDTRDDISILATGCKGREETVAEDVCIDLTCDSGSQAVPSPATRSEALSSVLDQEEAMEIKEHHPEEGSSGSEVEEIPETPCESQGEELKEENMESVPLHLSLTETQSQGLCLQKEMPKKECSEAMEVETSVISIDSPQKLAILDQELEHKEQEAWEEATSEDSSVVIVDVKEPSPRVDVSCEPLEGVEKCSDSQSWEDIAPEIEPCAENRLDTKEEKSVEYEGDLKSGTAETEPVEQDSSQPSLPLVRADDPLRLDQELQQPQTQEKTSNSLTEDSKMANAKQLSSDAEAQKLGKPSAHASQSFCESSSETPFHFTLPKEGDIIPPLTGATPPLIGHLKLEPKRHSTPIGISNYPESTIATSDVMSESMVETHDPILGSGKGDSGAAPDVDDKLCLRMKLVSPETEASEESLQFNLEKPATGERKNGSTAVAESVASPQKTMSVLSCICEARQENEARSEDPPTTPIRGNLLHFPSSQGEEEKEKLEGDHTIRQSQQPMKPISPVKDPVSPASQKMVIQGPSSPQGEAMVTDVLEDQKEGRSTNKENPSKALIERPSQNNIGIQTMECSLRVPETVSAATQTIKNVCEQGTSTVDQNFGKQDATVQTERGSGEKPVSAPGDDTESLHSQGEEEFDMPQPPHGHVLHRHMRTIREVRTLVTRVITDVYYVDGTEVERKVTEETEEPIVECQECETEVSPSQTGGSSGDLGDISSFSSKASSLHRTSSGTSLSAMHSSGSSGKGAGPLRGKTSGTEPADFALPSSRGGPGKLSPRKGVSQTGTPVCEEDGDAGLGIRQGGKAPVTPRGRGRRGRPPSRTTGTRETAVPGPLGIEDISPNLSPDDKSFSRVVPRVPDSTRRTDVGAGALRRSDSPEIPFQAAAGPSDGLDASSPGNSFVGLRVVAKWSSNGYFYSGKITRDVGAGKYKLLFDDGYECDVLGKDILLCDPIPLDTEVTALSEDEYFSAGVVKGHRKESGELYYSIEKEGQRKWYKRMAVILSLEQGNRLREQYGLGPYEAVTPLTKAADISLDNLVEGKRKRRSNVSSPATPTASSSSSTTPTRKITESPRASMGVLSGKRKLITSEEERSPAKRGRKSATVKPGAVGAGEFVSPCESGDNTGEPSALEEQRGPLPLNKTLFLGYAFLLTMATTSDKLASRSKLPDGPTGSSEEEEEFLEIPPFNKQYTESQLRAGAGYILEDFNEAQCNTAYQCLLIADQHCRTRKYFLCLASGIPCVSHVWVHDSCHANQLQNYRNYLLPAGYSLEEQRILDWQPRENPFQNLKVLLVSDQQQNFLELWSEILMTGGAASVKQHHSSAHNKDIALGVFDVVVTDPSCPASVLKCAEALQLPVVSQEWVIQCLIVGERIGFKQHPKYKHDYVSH
UniProt O43715: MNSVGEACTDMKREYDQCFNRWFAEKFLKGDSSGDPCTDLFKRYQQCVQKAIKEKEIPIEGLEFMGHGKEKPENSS
UniProt Q8NCE0: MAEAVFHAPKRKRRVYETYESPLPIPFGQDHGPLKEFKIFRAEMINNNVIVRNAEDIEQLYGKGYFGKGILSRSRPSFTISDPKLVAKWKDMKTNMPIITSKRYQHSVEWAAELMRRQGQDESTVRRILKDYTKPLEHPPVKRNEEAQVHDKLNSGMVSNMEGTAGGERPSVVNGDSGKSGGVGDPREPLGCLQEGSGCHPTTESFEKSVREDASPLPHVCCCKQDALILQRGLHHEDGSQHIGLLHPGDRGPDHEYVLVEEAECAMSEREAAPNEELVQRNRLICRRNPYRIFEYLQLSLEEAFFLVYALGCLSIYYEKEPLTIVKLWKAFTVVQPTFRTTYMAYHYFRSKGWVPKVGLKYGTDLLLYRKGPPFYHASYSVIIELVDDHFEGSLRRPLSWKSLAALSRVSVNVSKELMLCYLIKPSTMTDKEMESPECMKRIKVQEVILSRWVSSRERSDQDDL
UniProt P28908: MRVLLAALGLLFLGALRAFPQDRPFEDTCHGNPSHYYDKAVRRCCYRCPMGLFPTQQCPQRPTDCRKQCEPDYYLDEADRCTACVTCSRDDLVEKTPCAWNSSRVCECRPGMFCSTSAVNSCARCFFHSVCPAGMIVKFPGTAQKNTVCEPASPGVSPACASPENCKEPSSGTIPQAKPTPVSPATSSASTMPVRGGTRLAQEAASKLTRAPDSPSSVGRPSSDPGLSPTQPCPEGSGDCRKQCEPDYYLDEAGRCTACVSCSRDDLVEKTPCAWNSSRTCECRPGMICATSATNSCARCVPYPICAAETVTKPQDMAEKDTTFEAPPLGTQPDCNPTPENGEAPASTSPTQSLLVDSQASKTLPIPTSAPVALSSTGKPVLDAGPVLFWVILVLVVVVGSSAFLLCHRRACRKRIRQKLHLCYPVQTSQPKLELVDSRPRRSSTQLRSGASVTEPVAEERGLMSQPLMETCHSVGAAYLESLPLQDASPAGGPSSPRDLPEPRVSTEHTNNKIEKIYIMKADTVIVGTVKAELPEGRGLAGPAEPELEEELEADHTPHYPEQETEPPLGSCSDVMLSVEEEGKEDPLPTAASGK
UniProt O14656: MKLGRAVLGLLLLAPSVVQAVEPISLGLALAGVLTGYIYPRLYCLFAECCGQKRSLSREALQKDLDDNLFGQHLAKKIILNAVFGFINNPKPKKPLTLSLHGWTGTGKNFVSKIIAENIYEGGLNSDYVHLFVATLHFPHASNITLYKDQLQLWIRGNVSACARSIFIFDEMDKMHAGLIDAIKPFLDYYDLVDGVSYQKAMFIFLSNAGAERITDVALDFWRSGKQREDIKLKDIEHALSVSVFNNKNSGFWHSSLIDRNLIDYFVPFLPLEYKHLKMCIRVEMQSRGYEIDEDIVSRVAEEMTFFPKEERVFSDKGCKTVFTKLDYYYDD
UniProt Q7Z2T5: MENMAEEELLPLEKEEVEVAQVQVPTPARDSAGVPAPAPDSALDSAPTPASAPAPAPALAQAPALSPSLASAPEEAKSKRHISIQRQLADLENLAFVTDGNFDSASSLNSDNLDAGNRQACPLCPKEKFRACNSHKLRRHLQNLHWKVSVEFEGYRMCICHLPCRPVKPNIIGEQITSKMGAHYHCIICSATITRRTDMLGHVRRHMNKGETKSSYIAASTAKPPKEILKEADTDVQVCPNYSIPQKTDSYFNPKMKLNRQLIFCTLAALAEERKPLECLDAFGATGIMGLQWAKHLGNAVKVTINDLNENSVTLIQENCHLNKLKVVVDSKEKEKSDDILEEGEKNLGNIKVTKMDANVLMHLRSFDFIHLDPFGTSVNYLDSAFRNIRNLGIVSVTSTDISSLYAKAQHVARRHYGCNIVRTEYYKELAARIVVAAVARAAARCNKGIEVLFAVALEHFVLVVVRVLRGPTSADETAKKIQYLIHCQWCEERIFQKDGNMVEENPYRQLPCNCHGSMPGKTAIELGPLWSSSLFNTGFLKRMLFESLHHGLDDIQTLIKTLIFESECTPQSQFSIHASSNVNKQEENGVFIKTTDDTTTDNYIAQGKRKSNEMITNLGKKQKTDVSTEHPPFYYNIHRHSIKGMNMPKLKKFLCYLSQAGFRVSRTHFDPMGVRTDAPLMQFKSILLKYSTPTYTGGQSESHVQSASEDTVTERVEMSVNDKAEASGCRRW
UniProt P60174, whole entry, looked up: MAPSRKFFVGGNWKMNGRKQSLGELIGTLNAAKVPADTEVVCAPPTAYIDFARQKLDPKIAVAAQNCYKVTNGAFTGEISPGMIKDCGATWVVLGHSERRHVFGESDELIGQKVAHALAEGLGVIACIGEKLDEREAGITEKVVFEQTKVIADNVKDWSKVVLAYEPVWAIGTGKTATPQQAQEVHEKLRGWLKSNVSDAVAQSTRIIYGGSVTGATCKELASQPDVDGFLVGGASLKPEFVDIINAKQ
UniProt Q9NXH8: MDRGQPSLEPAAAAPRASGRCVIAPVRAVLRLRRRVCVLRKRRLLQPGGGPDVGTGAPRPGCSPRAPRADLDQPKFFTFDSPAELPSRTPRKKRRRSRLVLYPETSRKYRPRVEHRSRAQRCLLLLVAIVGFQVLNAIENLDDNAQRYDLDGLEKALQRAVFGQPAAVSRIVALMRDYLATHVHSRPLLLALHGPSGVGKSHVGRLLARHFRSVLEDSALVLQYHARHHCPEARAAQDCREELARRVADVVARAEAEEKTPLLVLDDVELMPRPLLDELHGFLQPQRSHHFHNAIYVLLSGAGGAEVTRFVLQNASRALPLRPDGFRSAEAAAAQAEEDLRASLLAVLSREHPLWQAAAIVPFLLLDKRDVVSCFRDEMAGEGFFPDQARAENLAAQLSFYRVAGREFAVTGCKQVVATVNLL
UniProt Q9NS69: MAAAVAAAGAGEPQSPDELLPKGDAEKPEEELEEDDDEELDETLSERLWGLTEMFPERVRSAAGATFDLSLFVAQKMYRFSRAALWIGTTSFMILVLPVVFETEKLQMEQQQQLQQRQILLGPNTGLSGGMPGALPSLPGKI
UniProt Q8N4H5: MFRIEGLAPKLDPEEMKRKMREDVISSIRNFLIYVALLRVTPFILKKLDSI
UniProt Q9UL33, whole entry, looked up: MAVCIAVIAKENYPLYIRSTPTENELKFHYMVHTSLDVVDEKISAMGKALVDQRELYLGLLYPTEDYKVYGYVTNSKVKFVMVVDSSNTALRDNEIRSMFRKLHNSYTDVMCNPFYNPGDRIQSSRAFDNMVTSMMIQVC
UniProt O43399: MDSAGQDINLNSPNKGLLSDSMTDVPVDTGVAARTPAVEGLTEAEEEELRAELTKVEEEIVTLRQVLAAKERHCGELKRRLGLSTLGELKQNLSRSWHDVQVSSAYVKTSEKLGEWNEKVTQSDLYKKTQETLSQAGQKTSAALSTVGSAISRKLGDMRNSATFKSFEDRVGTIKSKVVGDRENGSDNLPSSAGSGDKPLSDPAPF
UniProt O75674: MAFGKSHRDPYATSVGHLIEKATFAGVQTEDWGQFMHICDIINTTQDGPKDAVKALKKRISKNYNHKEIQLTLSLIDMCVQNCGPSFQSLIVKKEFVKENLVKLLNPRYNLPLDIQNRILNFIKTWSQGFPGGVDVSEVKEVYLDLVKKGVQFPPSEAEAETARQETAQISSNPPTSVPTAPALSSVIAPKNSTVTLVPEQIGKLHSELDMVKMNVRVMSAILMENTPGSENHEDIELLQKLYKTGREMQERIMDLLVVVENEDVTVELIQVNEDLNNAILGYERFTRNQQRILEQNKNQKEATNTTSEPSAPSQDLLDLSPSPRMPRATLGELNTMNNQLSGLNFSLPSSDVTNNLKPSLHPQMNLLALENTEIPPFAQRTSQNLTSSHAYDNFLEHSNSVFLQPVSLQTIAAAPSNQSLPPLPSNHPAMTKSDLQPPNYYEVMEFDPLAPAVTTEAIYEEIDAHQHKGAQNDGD

compound: c1cc(OCCN2CCCCC2)cc(-c2n[nH]c3ccc(-c4nnc[nH]4)cc23)c1; assay: log2 fold change, soluble protein after heating vs DMSO (PISA); higher = thermal stabilisation; K562 cells, 10 uM, 30 min; active = over 0.2 and 3.5 SD of the protein, either way, in both replicates (recomputed)
Summary of the method: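 Quantification of soluble protein used TMTpro 16plex LC-MS/MS, with channel sums equalised. Samples were the supernatant after 21,000xg for 90 min of pooled aliquots from K562 cells (2×10^6 cells/mL) treated with 10 μM compound for 30 min, heated for 3 min over 48°C-58°C, and extracted in PBS with 0.5% NP-40 at 4°C. Values, from duplicates, describe thermal stability against control samples on a log2 fold-change scale.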

log2 fold change, inactive:
TOX4 (UniProt O94842) 0.058
TPD52L1 (UniProt Q16890) -0.05
TNPO3 (UniProt Q9Y5L0) -0.059
TPM1 (UniProt H7BYY1) -0.017
TOLLIP (UniProt Q9H0E2) 0.303
TRA2B (UniProt P62995) -0.181
TP53BP1 isoform 2 (UniProt Q12888) -0.029
TRIAP1 (UniProt O43715) -0.038
TRIP10 (UniProt Q15642) -0.014
TPM4 isoform 2 (UniProt P67936) -0.028
TSEN2 (UniProt Q8NCE0) 0.008
TNFRSF8 (UniProt P28908) -0.025
TPM2 (UniProt P07951) 0.171
TPX2 (UniProt Q9ULW0) -0.082
TPST2 (UniProt O60704) -0.024
TOR1A (UniProt O14656) -0.009
TRMT13 (UniProt Q9NUP7) -0.125
TRMT1L (UniProt Q7Z2T5) -0.191
TPMT (UniProt P51580) 0.003
TPI1 (UniProt P60174) 0.017
TOR4A (UniProt Q9NXH8) -0.053
TNKS1BP1 (UniProt Q9C0C2) -0.05
TRAPPC11 (UniProt Q7Z392) -0.053
TRIM32 (UniProt Q13049) 0.141
TOMM22 (UniProt Q9NS69) -0.065
TOMM5 isoform 2 (UniProt Q8N4H5) 0.099
TOM1 isoform 2 (UniProt O60784) -0.081
TRAPPC2L (UniProt Q9UL33) -0.099
TRIP10 isoform 2 (UniProt Q15642) 0.008
TPD52L2 isoform 7 (UniProt O43399) -0.01
TPM4, A0A2R8Y5V9 -0.013
TOM1L1 (UniProt O75674) -0.041

Taken from the results shown (two entries):
log2 fold change, inactive:
TRIM32 (UniProt Q13049) 0.141
TOMM22 (UniProt Q9NS69) -0.065
